# In PubChem BioAssay (Tox21):
# Several values for one entry are separate records, joined by “and”; a condition that tells them apart may be missing. Calls follow the shape of the dose curve; as a rule, active = well fitted inhibition curve with a large enough effect in the signal ratio in the repeat runs (not every such curve was filed as active); inconclusive = weak or mixed curves, or effect the other way; inactive = flat fitted curve, though single readings scatter; the % refers to the signal ratio. Identical values can stand only once. Inconclusive results, whose numbers are uncertain, are shown. Potencies of inconclusive entries are doubtful fits and often do not repeat.
# Assay: cAMP Responsive Elements (CRE) small molecule antagonists, cell-based qHTS assay (AID 1963591)
# Details: CRE-bla HEK293T, beta-lactamase FRET ratio; activity change, negative = inhibition: at 92.4 µM (top of the series) unless noted
# In short: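 Stimulation used NKH477 at a final 0.25 uM for 3 h in compound-treated CRE-bla HEK293T cells, seeded 18 h beforehand. Reporter activity was measured with LiveBLAzer B/G FRET substrate after 2 h at room temperature.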
# % is scaled to controls: 0 for no effect and ±100 for the full control effect; potency is read from the fitted curve at half-maximal effect.
SMILES,Potency,"activity change, negative = inhibition"
OCc1c[nH]c2ccccc12,inconclusive: 28.1 µM [fluorescent],
O=S(=O)(O)c1ccc(Nc2nc(Nc3ccc(/C=C/c4ccc(Nc5nc(Nc6ccc(S(=O)(=O)O)cc6)nc(N(CCO)CCO)n5)cc4S(=O)(=O)O)c(S(=O)(=O)O)c3)nc(N(CCO)CCO)n2)cc1,"inconclusive: 46.3 µM [activator, single point]",
Nc1nc(Cl)nc2c1ncn2[C@H]1C[C@H](O)[C@@H](CO)O1,"inconclusive: 12.1 µM [activator, partial curve]",
c1ccc2c(c1)c1cccc3ccc4cccc2c4c31,inconclusive: 27.1 µM [fluorescent],
c1ccc2cc(Nc3ccc(Nc4ccc5ccccc5c4)cc3)ccc2c1,,inconclusive: 4.29%
CCc1c2c(nc3ccc(OC(=O)N4CCC(N5CCCCC5)CC4)cc13)-c1cc3c(c(=O)n1C2)COC(=O)[C@]3(O)CC,,inconclusive: 14.5% [at 42.4 µM]
Cc1c2ccccc2c(C)c2c1ccc1ccccc12,"inconclusive: 38.2 µM [fluorescent, partial curve] and inconclusive: 48.6 µM [fluorescent, partial curve]",
CCCCC/C=C\C/C=C\CCCCCCCC(=O)NC(C)c1ccccc1 (centres undefined),"inconclusive: 21.1 µM [fluorescent, partial curve, poor fit]",
CN(C)[C@@H]1C(=O)C(C(N)=O)=C(O)[C@@]2(O)C(=O)C3=C(O)c4c(O)cccc4C[C@H]3C[C@@H]12,"inconclusive: 29.8 µM [rising, partial curve]",
